Measured values as given in PMC3253115.
Results are given in words; binding and its absence hold for the method and conditions named. In cells and extracts the contact can be indirect. Some entries that bind do so weakly or less than the wild type.

The chains behind the UniProt entries cited, without tags or fusion partners. Where a name states a change or a piece, a line headed by the entry shows the natural chain unless it says otherwise. A line that says so, or that is headed by a name, gives the form on record, which may keep a tag or linker. Residues count along the entry.
Myc-tagged TH1 wild type phosphorylated at Tyr-6 by co-expressed c-Src (Y527F) (Q8IXH7, residues 10-590): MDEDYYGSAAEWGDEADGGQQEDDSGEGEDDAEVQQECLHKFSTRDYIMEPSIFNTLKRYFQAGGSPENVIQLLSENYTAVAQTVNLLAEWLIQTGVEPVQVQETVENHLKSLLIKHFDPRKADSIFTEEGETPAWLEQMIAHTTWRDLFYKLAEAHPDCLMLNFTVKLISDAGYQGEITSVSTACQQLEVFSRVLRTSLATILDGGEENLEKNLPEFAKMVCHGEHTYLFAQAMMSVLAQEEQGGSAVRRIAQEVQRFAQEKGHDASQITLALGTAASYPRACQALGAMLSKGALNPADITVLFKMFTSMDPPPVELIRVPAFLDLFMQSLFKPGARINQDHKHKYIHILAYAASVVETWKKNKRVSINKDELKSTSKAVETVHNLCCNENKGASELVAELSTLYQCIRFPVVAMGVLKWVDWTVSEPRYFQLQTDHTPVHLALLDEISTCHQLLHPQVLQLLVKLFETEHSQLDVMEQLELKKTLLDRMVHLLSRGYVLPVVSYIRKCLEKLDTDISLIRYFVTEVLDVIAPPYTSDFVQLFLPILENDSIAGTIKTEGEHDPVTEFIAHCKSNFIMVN
Myc-tagged TH1 Y6F (Q8IXH7, form named): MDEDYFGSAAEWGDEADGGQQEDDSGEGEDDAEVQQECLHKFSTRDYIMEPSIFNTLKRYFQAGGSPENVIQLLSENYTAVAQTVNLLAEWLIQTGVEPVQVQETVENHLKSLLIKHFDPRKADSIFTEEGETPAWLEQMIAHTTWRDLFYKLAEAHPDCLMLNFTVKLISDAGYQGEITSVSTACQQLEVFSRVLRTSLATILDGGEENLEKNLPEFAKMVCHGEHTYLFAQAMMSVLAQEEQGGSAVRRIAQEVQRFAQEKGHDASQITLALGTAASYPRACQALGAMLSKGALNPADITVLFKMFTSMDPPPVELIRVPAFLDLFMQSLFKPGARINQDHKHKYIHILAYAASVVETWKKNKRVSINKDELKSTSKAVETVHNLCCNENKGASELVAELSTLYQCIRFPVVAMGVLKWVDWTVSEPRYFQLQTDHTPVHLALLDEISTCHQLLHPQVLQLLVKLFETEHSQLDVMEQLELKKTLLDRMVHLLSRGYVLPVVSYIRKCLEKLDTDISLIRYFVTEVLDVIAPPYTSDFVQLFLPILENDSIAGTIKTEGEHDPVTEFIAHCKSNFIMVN
UniProt Q13153: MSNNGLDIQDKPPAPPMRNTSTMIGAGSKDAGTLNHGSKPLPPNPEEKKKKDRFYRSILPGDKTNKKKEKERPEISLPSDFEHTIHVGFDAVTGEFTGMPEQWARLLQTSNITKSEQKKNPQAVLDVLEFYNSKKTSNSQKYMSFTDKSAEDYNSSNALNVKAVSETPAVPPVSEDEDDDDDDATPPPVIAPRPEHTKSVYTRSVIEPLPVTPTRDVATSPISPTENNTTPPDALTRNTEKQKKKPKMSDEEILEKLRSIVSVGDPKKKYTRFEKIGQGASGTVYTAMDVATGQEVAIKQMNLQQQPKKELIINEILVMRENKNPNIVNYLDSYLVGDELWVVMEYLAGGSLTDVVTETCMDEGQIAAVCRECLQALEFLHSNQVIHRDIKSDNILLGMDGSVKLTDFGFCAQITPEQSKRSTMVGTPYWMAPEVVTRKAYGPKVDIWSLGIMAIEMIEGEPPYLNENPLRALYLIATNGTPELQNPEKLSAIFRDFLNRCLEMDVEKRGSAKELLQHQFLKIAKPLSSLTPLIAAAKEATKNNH

Assays:
Experiment in all cases: co-IP; HeLa cells transfected with HA-A-Raf and Myc-TH1-WT or Myc-TH1-Y6F, with c-Src (Y527F) or control vector; 36 h after transfection IP with anti-Myc antibodies, blot with anti-HA or anti-PAK1
[1] = biological target: Myc-tagged full length TH1 wild type (human) (UniProt Q8IXH7)
[2] = biological target: Myc-tagged TH1 Y6F (human) (UniProt Q8IXH7)
[3] = biological target: Myc-tagged TH1 wild type phosphorylated at Tyr-6 by co-expressed c-Src (Y527F) (human) (UniProt Q8IXH7)

binding [1]: binds
binding [2]: binds
binding [3]: binds
Substance: PAK1, endogenous in HeLa cells (from UniProt Q13153 1-545) (enzyme)
